Results from patent US10780094B2, “Use of carbonic anhydrase inhibitors for treatment of neurological and psychiatric disorders” (New York University, priority 2016, dated 2020).
Some results were stated once for a whole list of compounds, not compound by compound.

How the values were obtained:
Test in all cases: Cell Death ELISAplus, Aβ-induced apoptosis (fragmented nucleosomes)
Conditions in all cases: Aβ42 10 μM, Aβ40-Q22 50 μM; no drug
[1] = tested on: SH-SY5Y cells; format: cell-based, human
Method: (§1) The extent of apoptosis caused by Aβ in the presence or absence of MTZ was assessed by quantitation of nucleosome formation using Cell Death ELISA^plus (Roche Applied Science, Indianapolis, Ind.). Briefly, after incubation with the peptides, plates were centrifuged in a Beckman J-6B centrifuge (10 min; 1,000 rpm), cells lysed, and DNA-histone complexes (nucleosomes) quantitated by Cell Death ELISA, as previously described (Fossati et al., 2010).
20.000 cells per well were plated on 24-wells plates. The day after, cells were treated with peptides and/or drugs, following the experimental conditions.
20,000 cells per well were plated on 24-wells plates. The day after, cells were treated with peptides and/or drugs, following the experimental conditions.

[2] = tested on: M059K Glioma cells; format: cell-based, human
Method: as §1

[3] = tested on: Normal Human Astrocytes; format: cell-based
Method: as §1

Measured: increase in the level of apoptosis (fragmented DNA) caused by the peptide

Aβ40-Q22: Synthetic Aβ40, the Dutch genetic variant, containing the E22Q substitution
2 to 3 times: all assays above
